Results are given in words; binding and its absence hold for the method and conditions named. Some binding calls cover weakened binding; strength is not graded here.
T1: Cse1 (CasA) (E. coli) (UniProt Q46901)
T1 sequence: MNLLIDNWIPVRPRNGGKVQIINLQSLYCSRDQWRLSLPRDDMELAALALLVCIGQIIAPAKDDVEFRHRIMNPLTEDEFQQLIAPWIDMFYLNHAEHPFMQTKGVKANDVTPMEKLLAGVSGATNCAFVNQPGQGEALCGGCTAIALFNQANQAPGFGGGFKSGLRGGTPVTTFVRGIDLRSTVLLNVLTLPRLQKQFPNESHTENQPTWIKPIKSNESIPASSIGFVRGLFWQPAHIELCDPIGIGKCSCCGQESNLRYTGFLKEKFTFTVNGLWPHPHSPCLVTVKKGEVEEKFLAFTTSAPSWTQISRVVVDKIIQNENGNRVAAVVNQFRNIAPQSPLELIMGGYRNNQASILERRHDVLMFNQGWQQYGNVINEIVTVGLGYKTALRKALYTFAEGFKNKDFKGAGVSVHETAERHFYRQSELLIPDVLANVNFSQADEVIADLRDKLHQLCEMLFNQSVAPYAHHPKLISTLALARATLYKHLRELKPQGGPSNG


Target: T1, Cse1 (CasA) (E. coli)
Assay: SEC; Cascade+: nickel-column eluate on Superdex 200 HiLoad 16/60, 20 mM HEPES-K pH 7.5, 150 mM NaCl; major ~400 kDa peak read by SDS-PAGE and LC-MS in solution

| Binder | binding |
| --- | --- |
| Cse2 (CasB) (protein, UniProt P76632 1-160) MADEIDAMALYRAWQQLDNGSCAQIRRVSEPDELRDIPAFYRLVQPFGWENPRHQQALLRMVFCLSAGKNVIRHQDKKSEQTTGISLGRALANSGRINERRIFQLIRADRTADMVQLRRLLTHAEPVLDWPLMARMLTWWGKRERQQLLEDFVLTTNKNA | binds |
| Cas7 (CasC) (protein, UniProt Q46899 1-363) MSNFINIHVLISHSPSCLNRDDMNMQKDAIFGGKRRVRISSQSLKRAMRKSGYYAQNIGESSLRTIHLAQLRDVLRQKLGERFDQKIIDKTLALLSGKSVDEAEKISADAVTPWVVGEIAWFCEQVAKAEADNLDDKKLLKVLKEDIAAIRVNLQQGVDIALSGRMATSGMMTELGKVDGAMSIAHAITTHQVDSDIDWFTAVDDLQEQGSAHLGTQEFSSGVFYRYANINLAQLQENLGGASREQALEIATHVVHMLATEVPGAKQRTYAAFNPADMVMVNFSDMPLSMANAFEKAVKAKDGFLQPSIQAFNQYWDRVANGYGLNGAAAQFSLSDVDPITAQVKQMPTLEQLKSWVRNNGEA | binds |
| Cas5 (CasD) (protein, UniProt Q46898 1-224) MRSYLILRLAGPMQAWGQPTFEGTRPTGRFPTRSGLLGLLGACLGIQRDDTSSLQALSESVQFAVRCDELILDDRRVSVTGLRDYHTVLGAREDYRGLKSHETIQTWREYLCDASFTVALWLTPHATMVISELEKAVLKPRYTPYLGRRSCPLTHPLFLGTCQASDPQKALLNYEPVGGDIYSEESVTGHHLKFTARDEPMITLPRQFASREWYVIKGGMDVSQ | binds |
| Cas6e (CasE) (enzyme, UniProt Q46897 1-199) MYLSKVIIARAWSRDLYQLHQGLWHLFPNRPDAARDFLFHVEKRNTPEGCHVLLQSAQMPVSTAVATVIKTKQVEFQLQVGVPLYFRLRANPIKTILDNQKRLDSKGNIKRCRVPLIKEAEQIAWLQRKLGNAARVEDVHPISERPQYFSGDGKSGKIQTVCFEGVLTINDAPALIDLVQQGIGPAKSMGCGLLSLAPL | binds |
